In assay [1] the target is T1, C-reactive protein (UniProt P02741).
T1 sequence: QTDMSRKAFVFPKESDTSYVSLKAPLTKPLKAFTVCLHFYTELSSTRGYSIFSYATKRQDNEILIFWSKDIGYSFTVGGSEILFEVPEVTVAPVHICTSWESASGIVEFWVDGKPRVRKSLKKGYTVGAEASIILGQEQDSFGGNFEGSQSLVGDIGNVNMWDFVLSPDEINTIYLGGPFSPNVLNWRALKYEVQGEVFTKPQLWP
The assay is described as follows: ELISA; dose-response: same solid-phase protocol, 1 μg mammalian protein coated, increasing quantities of His-tagged pneumococcal protein from 0.8 to 200 pmoles per well; BSA as control; both purified.

Protein sequences, listed by entry. Tags and fused reporters are not part of them. Lines headed by an entry give the natural chain unless they say otherwise; changes in a name come on top.
UniProt Q8DP99: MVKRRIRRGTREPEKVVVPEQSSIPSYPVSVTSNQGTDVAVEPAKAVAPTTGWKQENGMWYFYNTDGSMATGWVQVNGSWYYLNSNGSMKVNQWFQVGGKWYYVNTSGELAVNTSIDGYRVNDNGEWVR

For assay [2], the target named is T1, C-reactive protein. Description: ELISA; solid-phase screen: 1 μg mammalian protein in 100 μL PBS pH7.0 coated on white 96 well plates overnight at 4°C; saturation 1 h with PBS 2% BSA; 200 pmole His-Tagged pneumococcal protein in 100 μL PBS for two hours at room temperature; washes PBS, Tween 0,03%; anti His-HRP antibody, ECL luminescence; positive = twice the BSA negative control in the majority of at least 3 independent experiments; both purified. On the technique in general: An ELISA detects its analyte on a solid surface through an enzyme-linked reagent.

In publication PMC2911433 one finds binding data, which are given here for two substances.

These are yes or no findings as the source states them, for the method shown. Binding calls can cover weak binding; strength is not graded here.

CbpM (from UniProt Q8DP99): the binding result in the assay with C-reactive protein [1] and in the assay with C-reactive protein [2] was “binds” throughout.
Take CbpL: the binding entry in the assay with C-reactive protein [1] and in the assay with C-reactive protein [2] was “binds” each time.
